Measured values: PubChem BioAssay AID1347075 (National Center for Advancing Translational Sciences (NCATS), 2019)
The whole screen tested about 400,000 compounds, of which about 5,500 (1.4%) were called active. The inconclusive results got no clear call from the source; some entries with a clear call stand among them for comparison. Calls come from the whole dose curve; as a rule, active = well fitted cell-killing curve with a large enough effect; inconclusive = small, poorly fitted or top-dose-only effect, or effect the other way; inactive = flat fitted curve, though single readings scatter. A potency beside an inconclusive call is a rough fit, not a confirmed value.

test: qHTS assay for MDR1-selective chemotherapeutics: Primary screen using the parental adenocarcinoma cell KB-3-1; settings: KB-3-1 viability, CellTiter-Glo ATP luminescence, 72 h; activity change, negative = cytotoxic: at 46.1 µM (top of the series); note: nearly all actives have a fitted effect of over 60% in size
Method in brief: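 Viability of parental KB-3-1 cells, measured by CellTiter-Glo luminescence, followed a 72 h incubation at 37 °C with pinned compounds in phenol-red-free DMEM containing 10% FBS.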
% is set by controls: 0 for no effect and ±100 for the full control effect; potency is the fitted concentration of half-maximal effect.

Compound	Potency	activity change, negative = cytotoxic
COc1ccc(Cn2cc(CN3CCc4onc(-c5ccc(Br)cc5)c4C3=O)nn2)cc1	inconclusive: 23.1 µM [cytotoxic, single point]	
COc1ccccc1[C@@H]1C(c2ccc(F)cc2)=NN(c2ccccc2)[C@H]1C(=O)N1CCOC1=O		inactive: 0.125%
Cc1cc(C)c2c(N)c(C(=O)N/N=C/c3cccs3)sc2n1	inconclusive: 29.1 µM [rising, single point]	
COc1cc(-c2cnc3c(NC=O)cc(-c4ccc(C)cc4)cn23)cc(OC)c1OC	active: 0.164 µM	
COc1ccc(Cl)cc1NC(=O)CN(C)CC(=O)Nc1cc(OC)c(OC)c(OC)c1	active: 4.61 µM	
CCOC(=O)c1cc(-c2cccc(C(F)(F)F)c2)nc2nc(SC)[nH]c(=O)c12		inactive: -9.61%
CCc1ccc(NC(=O)Cn2c(=O)n(CCC(=O)NCCc3ccc(OC)c(OC)c3)c(=O)c3ccccc32)cc1		inactive: -2.06%
COc1ccc(Cn2c(C(=O)O)c(CNCc3ccc(C)o3)c3ccc(OC)cc32)cc1	active: 8.2 µM	
CCc1ccc(NC(=O)CSCCN2C(=O)c3ccccc3C2=O)cc1	inconclusive: 0.58 µM [rising, partial curve, poor fit]	
O=C(Cc1ccc(-c2ccccc2)cc1)OCC(=O)N1CCCC1=O	inconclusive: 29.1 µM [cytotoxic, single point]	
CCOc1ccc(NC(=O)c2ccc3nc(C(C)C)oc3c2)cc1	inconclusive: 32.6 µM [cytotoxic, partial curve, poor fit]	
COc1ccccc1OC(C)C(=O)N1CCC(c2nc3ccccc3s2)CC1 (centres undefined)	active: 14.6 µM	
O=C(Nc1cccc(NC(=O)c2cc([N+](=O)[O-])ccc2Cl)n1)c1cc([N+](=O)[O-])ccc1Cl	active: 18.4 µM	
COc1ccc(/C(C)=N/Nc2nc(C)cc(-c3ccccc3)n2)cc1	inconclusive: 14.6 µM [cytotoxic, partial curve, poor fit]	
CC(=O)Nc1ccc2cnn(C(C)=O)c2c1		inactive: 21.6%
Cc1cccn2c(=O)nc(SCC(=O)c3ccccc3)nc12	inconclusive: 16.4 µM [rising, single point]	
CCOc1cc(/C=N/O)ccc1OS(=O)(=O)c1ccc(C)cc1	inconclusive: 35.5 µM [cytotoxic, single point]	
COc1cc(/C=C/C(=O)Nc2ccc(OC)c(S(=O)(=O)N3CCOCC3)c2)ccc1OC(F)F	inconclusive: 18.4 µM [cytotoxic, single point]	
CCOC(=O)c1csc(Nc2nc3ccc(F)cc3s2)n1	inconclusive: 18.4 µM [cytotoxic, single point]	
COc1ccc(NC(=O)c2cnc3sc(N4CCOCC4)nn3c2=O)c(OC)c1		inactive: -4.18%
O=C1c2ccccc2C(=O)N1c1nc(-c2ccc(F)cc2)cs1	inconclusive: 0.0065 µM [rising, full curve, poor fit]	
COCCn1c(C)cc(C(=O)CSc2nc3ccccc3c(=O)n2Cc2ccco2)c1C	inconclusive: 14.6 µM [cytotoxic, partial curve]	

Two successive compounds already listed:
Compound	Potency	activity change, negative = cytotoxic
O=C1c2ccccc2C(=O)N1c1nc(-c2ccc(F)cc2)cs1	inconclusive: 0.0065 µM [rising, full curve, poor fit]	
COCCn1c(C)cc(C(=O)CSc2nc3ccccc3c(=O)n2Cc2ccco2)c1C	inconclusive: 14.6 µM [cytotoxic, partial curve]	

(further entries)

Compound	Potency	activity change, negative = cytotoxic
COc1cc(/C=C(\C#N)C(=O)NC2CCCCC2C)ccc1OS(=O)(=O)c1ccc(C)cc1 (centres undefined)	inconclusive: 3.66 µM [cytotoxic, partial curve, poor fit]	
CCCCCCOC(=O)CC1CC(C(C)=O)C1(C)C (centres undefined)		inactive: -3.42%
COc1ccccc1N(CC(=O)NCCSc1ccc(Cl)cc1)S(C)(=O)=O	inconclusive: 5.17 µM [cytotoxic, partial curve, poor fit]	
O=C(C[C@H]1C[C@H](C(=O)N2CCOCC2)[C@@]2(CCC3CCCC3)c3[nH]c4ccc(Cl)cc4c3CCN2C1=O)NCCCn1ccnc1	inconclusive: 29.1 µM [cytotoxic, single point]	
Cc1cccc(N2CCN(C(=O)Cc3ccc(Br)cc3)CC2)c1C	inconclusive: 29.1 µM [cytotoxic, single point]	
COc1cccc(NC(=O)c2cc(-c3ccc(OC)cc3OC)nc3ccccc23)c1		inactive: -13.4%
CCn1c(=N)n(CC(O)COc2ccc(C)cc2)c2ccccc21 (centres undefined)		inactive: -7.39%
O=C(NC1CCCCC1)C(c1ccc2ncccc2c1)N(Cc1ccccc1)C(=O)c1cccs1 (centres undefined)		inactive: 9.09%
COCCN1CC(C(=O)NCCc2nc(C)c(C)s2)CCC1=O (centres undefined)	inconclusive: 32.6 µM [rising, partial curve, poor fit]	
O=c1[nH]c2ccccc2c(O)c1Cc1ccccc1		inactive: -6.02%
O=C(O)CCC(=O)/C=C/c1ccccc1	inconclusive: 32.6 µM [rising, single point]	
CC(OC(=O)C1CCN(c2ccc(C(F)(F)F)cn2)CC1)C(=O)Nc1cccc([N+](=O)[O-])c1 (centres undefined)	inconclusive: 13 µM [rising, partial curve]	
COC(=O)CN1C(=O)C(O)(CC(=O)c2ccc(Cl)cc2)c2ccccc21 (centres undefined)	inconclusive: 29.1 µM [cytotoxic, single point]	
COc1ccc(-c2nnc(SCC(=O)Oc3cc(C)ccc3C)o2)cc1		inactive: 4.09%
COC(=O)c1ccc(C(=O)Nc2ccc3nc(-c4cccnc4)[nH]c3c2)cc1	inconclusive: 16.4 µM [rising, partial curve, poor fit]	
COc1cc(C(=O)NC2CCN(C)CC2)ccc1Nc1ncc2c(n1)N(C1CCCC1)CCC(=O)N2C(C)C	inconclusive: 18.4 µM [cytotoxic, single point]	
CC(C)(C)c1nnc(N/N=C/c2ccccc2O)n(N)c1=O	inconclusive: 2.59 µM [cytotoxic, full curve, poor fit]	
COc1ccc(-c2cc(C(F)(F)F)nc(N3CCN(C)CC3)n2)cc1OC	inconclusive: 29.1 µM [cytotoxic, single point]	
Cc1cc(OCC(=O)Nc2ccccc2F)nc(C(C)C)n1		inactive: 1.31%
COc1ccc(-c2coc3cc4oc(=O)c5ccccc5c4cc23)cc1F	inconclusive: 0.58 µM [cytotoxic, full curve, poor fit]	
c1ccc(-c2cc(-c3ccccc3)ncn2)cc1		inconclusive: 40%
Cc1nc2ccn(Cc3ccccc3)c(=O)c2cc1C(=O)N1CCN(c2ccccc2)CC1		inactive: 2%
